Laboratory results taken from US9012455B2, “Pharmaceutical compositions containing an indoyl isoquinoline containing compound and uses thereof” (The Regents of the University of California, priority 2006, dated 2015).
pEC50: −log10 of the molar value.

System: Ba/F3-p210 cells
Experiment: median-effect and Combination Index analysis (Chou's method)
Type: cell-based, murine
Details: Mus musculus, read-out: median-effect dose (Dm)

pEC50: 6.70
SMILES: Cc1ccc(NC(=O)c2ccc(CN3CCN(C)CC3)cc2)cc1Nc1nccc(-c2cccnc2)n1 [imatinib]
